The results in this text go back to paper PMC12390684 (Viruses, 2025).

By UniProt entry, the sequences of proteins in these tests, tags left out. Residues count along the entry.
UniProt Q9P2K8, 192-1024: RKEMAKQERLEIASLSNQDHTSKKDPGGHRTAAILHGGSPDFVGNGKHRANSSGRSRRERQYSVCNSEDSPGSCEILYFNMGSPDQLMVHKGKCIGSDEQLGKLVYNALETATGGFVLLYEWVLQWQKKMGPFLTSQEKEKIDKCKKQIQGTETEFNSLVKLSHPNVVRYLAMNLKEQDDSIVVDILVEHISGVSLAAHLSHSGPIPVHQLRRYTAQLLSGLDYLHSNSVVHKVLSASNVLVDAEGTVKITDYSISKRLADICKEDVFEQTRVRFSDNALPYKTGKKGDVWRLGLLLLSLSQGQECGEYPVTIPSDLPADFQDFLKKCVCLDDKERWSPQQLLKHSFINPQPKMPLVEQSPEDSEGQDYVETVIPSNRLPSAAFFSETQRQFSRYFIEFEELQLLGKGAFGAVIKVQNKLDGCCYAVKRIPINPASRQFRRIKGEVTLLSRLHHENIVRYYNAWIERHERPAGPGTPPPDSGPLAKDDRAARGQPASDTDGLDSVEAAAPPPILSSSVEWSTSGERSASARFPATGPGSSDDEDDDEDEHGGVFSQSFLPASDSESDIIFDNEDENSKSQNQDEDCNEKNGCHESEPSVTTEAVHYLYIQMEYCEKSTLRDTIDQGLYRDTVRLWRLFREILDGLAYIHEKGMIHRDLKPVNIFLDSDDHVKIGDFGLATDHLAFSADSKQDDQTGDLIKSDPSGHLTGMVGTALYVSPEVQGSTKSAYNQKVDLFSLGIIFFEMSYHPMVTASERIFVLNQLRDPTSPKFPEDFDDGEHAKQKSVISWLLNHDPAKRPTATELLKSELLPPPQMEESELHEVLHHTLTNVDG

For the experiment, the target named is IN-GCN2 interaction (6xHis-IN / GST-GCN2) (UniProt P04585+Q9P2K8). The format is binding, HIV-1 IN; human GCN2. Conditions: screen, single dose 100 µM, single replicate; residual AlphaLISA signal normalized to DMSO control.
`COc1cc2c(c(OC)c1OC)-c1ccc(SC)c(=O)cc1[C@@H](N)CC2` [NSC9170]: the “IN-GCN2 interaction (%)” value is listed as 39.60%.

As for `COc1cc2c(c(OC)c1OC)-c1ccc(OC)c(=O)cc1[C@@H](N)CC2.O=C(O)C(O)C(O)C(=O)O` [NSC36354], the “IN-GCN2 interaction (%)” value was determined as 86.27%.

With `COc1c(O)cc2c(c1OC)-c1ccc(OC)c(=O)cc1[C@@H](NC(C)=O)CC2` [NSC172946], the “IN-GCN2 interaction (%)” value turned out to be 105.30%.

`CCOC(=O)NC1CCc2cc(OC)c(OC)c(OC)c2-c2ccc(OC)c(=O)cc21` (stereo not shown) [NSC355637]: the “IN-GCN2 interaction (%)” value was 100.90%.
